Experimental data from US20050079188A1, “Base for external preparations for the skin and cosmetic containing the same” (priority 2001, published 2005).

How the values were obtained:
professional panelists [1] = assay: Organoleptic assessment of aqueous solution containing 10% by weight of the compound; format: in vivo; conditions: 10% by weight aqueous solution applied on upper arm, total score of 10 panelists, immediately after to 30 minutes after application, 35 or higher favorable; for Sticky feeling: five-grade sticky-free (smooth) feeling; for Moist feeling: five-grade system
professional panelists [2] = assay: Organoleptic assessment of creams containing 4.0 wt % test compound; format: in vivo; conditions: cream with 4.0 wt % test compound, total score of 10 panelists, 35 or higher favorable; for Sticky feeling: five-grade sticky-free feeling; for Moist feeling: five-grade system

**Q.** Which results are given for `CCCCCCOCCOCCOCCOCCOCCOCCOCCCCCC` [C6H13O(EO)6C6H13]?
**A.** Sticky feeling (professional panelists [1]): 39; Moist feeling (professional panelists [1]): 30; Sticky feeling (professional panelists [2]): 38; Moist feeling (professional panelists [2]): 31

**Q.** How did the Sticky feeling (professional panelists [1]) turn out when `CC(O)CO` (centres unmarked) [Propylene glycol] was run?
**A.** 18

**Q.** What about the Moist feeling (professional panelists [1]) of the same compound?
**A.** 42

**Q.** What about the Sticky feeling (professional panelists [2]) of the same compound?
**A.** 32

**Q.** And the Moist feeling (professional panelists [2])?
**A.** 39
